From the M2OR odorant receptor database
This is a selection; strong and weak results do not stand in their true shares. Calls are pooled over several reports, among them a noisy single-well screen. The list shows a part of the results.

Experiments:
Conditions in all cases: stereoisomer not certain
OR6C2 (Homo sapiens) = target: T1, OR6C2 (Homo sapiens) (UniProt Q9NZP2)
T1 sequence (whole entry): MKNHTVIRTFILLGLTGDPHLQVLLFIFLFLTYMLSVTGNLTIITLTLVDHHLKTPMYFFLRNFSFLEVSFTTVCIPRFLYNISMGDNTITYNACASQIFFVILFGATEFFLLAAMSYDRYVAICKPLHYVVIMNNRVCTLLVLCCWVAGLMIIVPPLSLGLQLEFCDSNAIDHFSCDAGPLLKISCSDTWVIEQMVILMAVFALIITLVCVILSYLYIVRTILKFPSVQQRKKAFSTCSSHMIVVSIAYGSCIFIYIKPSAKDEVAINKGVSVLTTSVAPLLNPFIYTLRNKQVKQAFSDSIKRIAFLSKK
Procedure, shortened: (§1)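 Values were gathered from published papers (main text and supplementary material), with extra details requested from the original authors when needed, and checked for typos and inconsistencies. Each receptor–molecule pair is called responsive (active) if the original authors judged the measured signal statistically different from baseline, and non-responsive (inactive) otherwise. Assay methods varied by source, often transient mammalian cell-line luciferase assays. Recorded details include cell line, G-protein, co-transfected protein and tags.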

OR6C3 (Homo sapiens) = target: T2, OR6C3 (Homo sapiens) (UniProt Q9NZP0)
T2 sequence (whole entry): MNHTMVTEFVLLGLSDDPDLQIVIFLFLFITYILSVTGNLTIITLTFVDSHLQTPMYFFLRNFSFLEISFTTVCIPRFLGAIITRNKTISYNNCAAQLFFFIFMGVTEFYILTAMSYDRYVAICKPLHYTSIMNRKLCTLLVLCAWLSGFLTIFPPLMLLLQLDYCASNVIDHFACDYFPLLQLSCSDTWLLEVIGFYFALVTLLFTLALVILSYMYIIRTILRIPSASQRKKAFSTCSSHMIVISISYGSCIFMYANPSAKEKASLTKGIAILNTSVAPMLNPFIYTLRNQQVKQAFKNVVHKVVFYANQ
Procedure, shortened: as §1

OR6C4 = test system: T3, OR6C4
T3 sequence (whole entry): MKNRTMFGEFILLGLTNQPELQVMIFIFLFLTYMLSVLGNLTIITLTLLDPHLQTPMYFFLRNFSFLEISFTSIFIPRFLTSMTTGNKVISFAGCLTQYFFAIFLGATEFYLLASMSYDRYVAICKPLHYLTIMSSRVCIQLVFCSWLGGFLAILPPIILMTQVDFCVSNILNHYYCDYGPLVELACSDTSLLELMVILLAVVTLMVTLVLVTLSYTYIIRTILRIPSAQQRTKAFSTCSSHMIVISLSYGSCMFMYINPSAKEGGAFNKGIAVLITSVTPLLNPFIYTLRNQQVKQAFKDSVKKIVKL
Procedure, shortened: as §1

OR6C6 (Homo sapiens) = target: T4, OR6C6 (Homo sapiens) (UniProt A6NF89)
T4 sequence (whole entry): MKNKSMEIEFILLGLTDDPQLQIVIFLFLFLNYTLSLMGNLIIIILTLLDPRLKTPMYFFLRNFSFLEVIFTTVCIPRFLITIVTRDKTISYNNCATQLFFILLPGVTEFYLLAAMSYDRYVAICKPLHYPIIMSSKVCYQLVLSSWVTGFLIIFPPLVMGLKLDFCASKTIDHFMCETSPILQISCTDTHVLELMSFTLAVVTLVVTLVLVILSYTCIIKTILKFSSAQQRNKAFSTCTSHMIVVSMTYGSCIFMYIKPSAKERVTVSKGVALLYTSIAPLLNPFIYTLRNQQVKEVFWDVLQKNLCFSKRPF
Procedure, shortened: as §1

OR6C65 (Homo sapiens) = target: T5, OR6C65 (Homo sapiens) (UniProt A6NJZ3)
T5 sequence (whole entry): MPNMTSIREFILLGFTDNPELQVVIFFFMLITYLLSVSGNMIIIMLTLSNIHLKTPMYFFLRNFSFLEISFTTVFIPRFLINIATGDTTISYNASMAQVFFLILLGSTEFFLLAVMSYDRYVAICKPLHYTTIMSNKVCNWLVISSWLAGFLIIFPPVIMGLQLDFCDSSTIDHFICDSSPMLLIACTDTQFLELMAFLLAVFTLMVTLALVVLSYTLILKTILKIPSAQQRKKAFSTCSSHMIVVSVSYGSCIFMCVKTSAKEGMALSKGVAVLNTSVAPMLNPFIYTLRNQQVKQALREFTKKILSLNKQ
Procedure, shortened: as §1

OR6C74 (Homo sapiens) = target: T6, OR6C74 (Homo sapiens) (UniProt A6NCV1)
T6 sequence (whole entry): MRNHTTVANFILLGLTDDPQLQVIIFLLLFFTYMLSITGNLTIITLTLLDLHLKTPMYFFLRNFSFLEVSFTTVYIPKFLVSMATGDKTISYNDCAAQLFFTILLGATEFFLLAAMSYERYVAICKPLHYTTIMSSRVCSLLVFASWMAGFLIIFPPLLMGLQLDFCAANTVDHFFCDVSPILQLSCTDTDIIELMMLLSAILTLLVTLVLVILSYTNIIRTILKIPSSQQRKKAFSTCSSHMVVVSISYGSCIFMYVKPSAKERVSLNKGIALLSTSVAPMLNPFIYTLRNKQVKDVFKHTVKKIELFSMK
Procedure, shortened: as §1

OR6C75 (Homo sapiens) = target: T7, OR6C75 (Homo sapiens) (UniProt A6NL08)
T7 sequence (whole entry): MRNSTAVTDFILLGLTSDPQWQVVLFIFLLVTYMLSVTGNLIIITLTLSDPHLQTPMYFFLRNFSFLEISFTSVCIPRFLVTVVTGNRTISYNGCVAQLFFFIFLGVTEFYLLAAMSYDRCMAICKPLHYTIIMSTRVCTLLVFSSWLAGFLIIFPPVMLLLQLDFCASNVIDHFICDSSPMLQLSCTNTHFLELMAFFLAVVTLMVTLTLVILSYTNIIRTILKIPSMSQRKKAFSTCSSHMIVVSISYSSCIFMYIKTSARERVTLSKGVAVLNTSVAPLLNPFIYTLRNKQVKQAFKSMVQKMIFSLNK
Procedure, shortened: as §1

OR6C76 (Homo sapiens) = target: T8, OR6C76 (Homo sapiens) (UniProt A6NM76)
T8 sequence (whole entry): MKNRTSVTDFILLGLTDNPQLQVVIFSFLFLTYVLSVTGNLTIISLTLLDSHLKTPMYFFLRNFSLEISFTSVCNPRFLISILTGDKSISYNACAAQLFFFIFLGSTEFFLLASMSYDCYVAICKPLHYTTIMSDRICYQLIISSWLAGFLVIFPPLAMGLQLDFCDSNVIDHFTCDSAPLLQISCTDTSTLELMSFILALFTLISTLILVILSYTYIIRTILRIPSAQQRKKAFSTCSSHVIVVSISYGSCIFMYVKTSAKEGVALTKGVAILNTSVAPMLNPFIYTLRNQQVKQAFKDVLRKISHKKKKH
Procedure, shortened: as §1

OR6F1 (Homo sapiens) = target: T9, OR6F1 (Homo sapiens) (UniProt Q8NGZ6)
T9 sequence (whole entry): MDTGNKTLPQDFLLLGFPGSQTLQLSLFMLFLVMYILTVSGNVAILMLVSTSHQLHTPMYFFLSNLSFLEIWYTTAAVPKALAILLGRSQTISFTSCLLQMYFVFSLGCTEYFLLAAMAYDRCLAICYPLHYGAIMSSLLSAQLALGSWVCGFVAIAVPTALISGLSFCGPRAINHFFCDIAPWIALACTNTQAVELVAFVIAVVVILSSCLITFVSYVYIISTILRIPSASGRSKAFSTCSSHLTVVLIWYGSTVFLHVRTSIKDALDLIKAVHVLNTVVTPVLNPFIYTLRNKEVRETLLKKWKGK
Procedure, shortened: as §1

OR6J1 = test system: T10, OR6J1
T10 sequence (whole entry): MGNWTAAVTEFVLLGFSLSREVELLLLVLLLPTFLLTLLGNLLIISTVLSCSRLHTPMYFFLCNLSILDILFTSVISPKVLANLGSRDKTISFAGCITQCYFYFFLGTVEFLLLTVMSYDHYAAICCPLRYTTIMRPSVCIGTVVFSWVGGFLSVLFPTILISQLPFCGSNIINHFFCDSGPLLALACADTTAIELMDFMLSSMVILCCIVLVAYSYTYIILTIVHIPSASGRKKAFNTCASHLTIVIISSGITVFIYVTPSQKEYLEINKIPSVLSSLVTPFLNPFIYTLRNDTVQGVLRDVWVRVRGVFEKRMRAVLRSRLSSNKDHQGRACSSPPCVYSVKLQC
Procedure, shortened: as §1

Measured: odorant receptor agonist call

CCC(C)=O
inactive: all assays above
